PubChem BioAssay AID1159584 – Peter MacCallum Cancer Centre, 2016

Assay: 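Knock-downs that harm CDH1-null cells more than parental MCF10A cells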 (primary screen)
System: human MCF10A breast epithelial cells, parental and CDH1-null
Reagent: siRNA against human genes
Detection: 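Cell viability by CellTiter-Glo ATP luminescence, each line scaled to the mean of mock wells across plates, then CDH1-null over parental ratio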
Scale: CDH1-null / parental viability ratio: higher = CDH1-null cells survive relatively better than parental
Here is one part, drawn at random, of about 18,000 deposited reagents. Further read-outs or replicates are left out here. No sequences are given here. The record does not give: the amount of reagent, the time to read-out.

DDX21 (DExD-box helicase 21)
- CDH1-null / parental viability ratio: 0.96

SP2 (Sp2 transcription factor)
- CDH1-null / parental viability ratio: 0.88

MDH1 (malate dehydrogenase 1)
- CDH1-null / parental viability ratio: 1.01

RET (ret proto-oncogene)
- CDH1-null / parental viability ratio: 0.98

LASP1 (LIM and SH3 protein 1)
- CDH1-null / parental viability ratio: 1.21

RCL1 (RNA terminal phosphate cyclase like 1)
- CDH1-null / parental viability ratio: 1.12

SLC10A3
- CDH1-null / parental viability ratio: 1.18

IQCE (IQ motif containing E)
- CDH1-null / parental viability ratio: 0.95

The list goes on; the last 2 above are carried over.
SLC10A3
- CDH1-null / parental viability ratio: 1.18

IQCE (IQ motif containing E)
- CDH1-null / parental viability ratio: 0.95

TSGA10 (testis specific 10)
- CDH1-null / parental viability ratio: 1.14

GDF10 (growth differentiation factor 10)
- CDH1-null / parental viability ratio: 0.71

TDRD7 (tudor domain containing 7)
- CDH1-null / parental viability ratio: 0.98

LCE3B (late cornified envelope 3B)
- CDH1-null / parental viability ratio: 0.68

TENT4B (terminal nucleotidyltransferase 4B)
- CDH1-null / parental viability ratio: 0.94

VPS41 (VPS41 subunit of HOPS complex)
- CDH1-null / parental viability ratio: 1.02
